Source: patent US20260284208A1, “SYSTEM” (Oxford University Innovation Limited, priority 2023, published 2026)
This continues a long series; more values of the same kind are listed elsewhere.

Test system: library of 8,380 IKZF3 degrons (ZF-eGFP/mCherry reporter) in Jurkat cells
Assay: Pooled library screen (FACS, NGS, limma voom LogFC of positive vs negative read counts)
Assay type: cell-based, human
Protocol: A library of 8,380 IKZF3 degrons was cloned into pLVX-Sprout to create the eGFP/mCherry protein degradation reporter plasmid pool. A lentivirus pool was then generated using the Lenti-X lentiviral vector production method.
Jurkat cells were transduced at a multiplicity of infection of <0.3 with the lentivirus vector library in order to maximise the number of cells with a single integration. Transductions were carried out in 6 well TC-treated cell culture dishes (Falcon) with 3×10^6 cells per well. Cells were incubated for 2 days at 37° C. and 5% CO2 before the supernatant was removed and replaced with fresh media. 6 days post-transduction, mCherry+ cells were isolated via FACS using the FACS Aria Fusion (BD) in a buffer containing PBS (Gibco), 2 mM EDTA (Gibco), 25 mM HEPES (Sigma) and 1% BSA (Sigma). 8 days later, cells were treated with DMSO or a thalidomide analog for 18 hours at 37° C. and 5% CO2. mCherry+GFPlow and NOT(mCherry+GFPlow) cells were sorted by FACS using the FACS Aria Fusion (BD). DMSO treated cells were used to set the mCherry+GFPlow gate and dead cells were excluded from sorting by staining cells with 1 μg/mL DAPI (ThermoFisher). gDNA was isolated using the Maxwell RSC 48 (Promega). gDNA from cells that were unsorted and untreated were also isolated to determine the library representation on the day of compound treatment. Throughout the screen >600× coverage of the library was maintained. 3 biological replicates were carried out with a new transduction taking place each time.
A two-step PCR was used where the first PCR (PCR1) amplified the integrated degron sequence from gDNA and the second PCR (PCR2) added Illumina adaptors and barcodes to permit multiplexing. See Supp F for PCR1 and PCR2 primers. Q5 Hot Start High-Fidelity 2× Master Mix (New England Biolabs) was used for both PCRs. Sufficient gDNA was amplified in PCR1 in order to maintain >600× coverage and amplicons were purified using solid phase reversible immobilization (SPRI) beads (Beckman Coulter). Purified PCR1 products were analysed on the Tapestation 4200 (Agilent) to confirm purity prior to proceeding to PCR2. Sufficient PCR1 product was amplified in PCR2 in order to maintain >600× coverage and amplicons were run on a 2% agarose TAE gel. Target bands were excised and purified using the NucleoSpin Gel and PCR Clean-up Kit (Machery Nagel). Amplicons were analysed on the Tapestation 4200 and quantified using Qubit dsDNA HS kit (ThermoFisher). PCR products were pooled and sequenced as paired-reads on the NovaSeq (Illumina) using a SP2 200 cycles kit (Illumina).
Count distributions, percentage of read mapping, library coverage and replicate correlation per sample were assessed for QC purposes.
To carry out the library screen, we used the same plasmid construct as in our earlier flow cytometry assays, but pooling all 8,380 mutants together into one Jurkat population, ensuring a copy number of one plasmid per cell (FIG. 4B). […] These GFP-negative cells were then separated from the remaining GFP-positive population using fluorescence activated cell sorting (FACS). These two populations were then sequenced and the relative abundance of every mutant in both populations compared to provide a log FC value for each mutant sequence. This value indicated how frequently a sequence is observed in the GFP-negative population relative to the GFP-positive population, and therefore how effective a degron it is for that particular IMID compound.

Compound: O=C1CCC(N2C(=O)c3ccc(N4CCOCC4)cc3C2=O)C(=O)N1 (stereo not shown) [B03]
- B03_logFC (Degron-ID 6461, SEQ ID NO 4303, 46L_47A_49P_50I_52G_53F_54C_55C_67L_): 2.215
- B03_logFC (Degron-ID 6475, SEQ ID NO 3714, 46L_47A_49P_50I_52G_53F_54S_55C_67L_): 3.181
- B03_logFC (Degron-ID 6476, SEQ ID NO 3695, 46L_47A_49P_50I_52G_53F_54T_55C_67L_): 3.232
- B03_logFC (Degron-ID 6479, SEQ ID NO 3928, 46L_47A_49P_50I_52G_53F_54Y_55C_67L): 2.794
- B03_logFC (Degron-ID 6481, SEQ ID NO 4363, 46L_47C_49P_50I_52G_53F_54C_55C_67L_): 2.101
- B03_logFC (Degron-ID 6490, SEQ ID NO 4424, 46L_47C_49P_50I_52G_53F_54M_55C_67L_): 2.015
- B03_logFC (Degron-ID 6495, SEQ ID NO 3739, 46L_47C_49P_50I_52G_53F_54S_55C_67L_): 3.147
- B03_logFC (Degron-ID 6499, SEQ ID NO 4251, 46L_47C_49P_50I_52G_53F_54Y_55C_67L_): 2.295
- B03_logFC (Degron-ID 6543, SEQ ID NO 3877, 46L_47F_49P_50I_52G_53F_54E_55C_67L): 2.888
- B03_logFC (Degron-ID 6546, SEQ ID NO 3645, 46L_47F_49P_50I_52G_53F_54H_55C_67L_): 3.366
- B03_logFC (Degron-ID 6548, SEQ ID NO 3818, 46L_47F_49P_50I_52G_53F_54K_55C_67L_): 2.978
- B03_logFC (Degron-ID 6550, SEQ ID NO 3942, 46L_47F_49P_50I_52G_53F_54M_55C_67L): 2.773
- B03_logFC (Degron-ID 6551, SEQ ID NO 3784, 46L_47F_49P_50I_52G_53F_54N_55C_67L_): 3.038
- B03_logFC (Degron-ID 6553, SEQ ID NO 3670, 46L_47F_49P_50I_52G_53F_54Q_55C_67L_): 3.295
- B03_logFC (Degron-ID 6554, SEQ ID NO 3709, 46L_47F_49P_50I_52G_53F_54R_55C_67L_): 3.202
- B03_logFC (Degron-ID 6557, SEQ ID NO 3809, 46L_47F_49P_50I_52G_53F_54V_55C_67L_): 2.992
- B03_logFC (Degron-ID 6560, SEQ ID NO 4362, 46L_47G_49P_50I_52G_53F_54A_55C_67L_): 2.101
- B03_logFC (Degron-ID 6561, SEQ ID NO 4408, 46L_47G_49P_50I_52G_53F_54C_55C_67L_): 2.032
- B03_logFC (Degron-ID 6564, SEQ ID NO 4332, 46L_47G_49P_50I_52G_53F_54F_55C_67L_): 2.155
- B03_logFC (Degron-ID 6574, SEQ ID NO 4400, 46L_47G_49P_50I_52G_53F_54R_55C_67L_): 2.038
- B03_logFC (Degron-ID 6575, SEQ ID NO 4042, 46L_47G_49P_50I_52G_53F_54S_55C_67L): 2.618
- B03_logFC (Degron-ID 6576, SEQ ID NO 3884, 46L_47G_49P_50I_52G_53F_54T_55C_67L): 2.873
- B03_logFC (Degron-ID 6578, SEQ ID NO 4419, 46L_47G_49P_50I_52G_53F_54W_55C_67L_): 2.018
- B03_logFC (Degron-ID 6580, SEQ ID NO 4036, 46L_47H_49P_50I_52G_53F_54A_55C_67L): 2.628
- B03_logFC (Degron-ID 6585, SEQ ID NO 4397, 46L_47H_49P_50I_52G_53F_54G_55C_67L_): 2.041
- B03_logFC (Degron-ID 6588, SEQ ID NO 4317, 46L_47H_49P_50I_52G_53F_54K_55C_67L_): 2.179
- B03_logFC (Degron-ID 6591, SEQ ID NO 4396, 46L_47H_49P_50I_52G_53F_54N_55C_67L_): 2.044
- B03_logFC (Degron-ID 6596, SEQ ID NO 3823, 46L_47H_49P_50I_52G_53F_54T_55C_67L_): 2.967
- B03_logFC (Degron-ID 6599, SEQ ID NO 3918, 46L_47H_49P_50I_52G_53F_54Y_55C_67L): 2.816
- B03_logFC (Degron-ID 6605, SEQ ID NO 3876, 46L_47I_49P_50I_52G_53F_54G_55C_67L): 2.889
- B03_logFC (Degron-ID 6614, SEQ ID NO 4286, 46L_47I_49P_50I_52G_53F_54R_55C_67L_): 2.241
- B03_logFC (Degron-ID 6615, SEQ ID NO 3770, 46L_47I_49P_50I_52G_53F_54S_55C_67L_): 3.076
- B03_logFC (Degron-ID 6675, SEQ ID NO 3936, 46L_47M_49P_50I_52G_53F_54S_55C_67L): 2.781
- B03_logFC (Degron-ID 6695, SEQ ID NO 4431, 46L_47N_49P_50I_52G_53F_54S_55C_67L_): 2.008
- B03_logFC (Degron-ID 6700, SEQ ID NO 3828, 46L_47Q_49P_50I_52G_53F_54A_55C_67L_): 2.958
- B03_logFC (Degron-ID 6701, SEQ ID NO 4278, 46L_47Q_49P_50I_52G_53F_54C_55C_67L_): 2.248
- B03_logFC (Degron-ID 6705, SEQ ID NO 4381, 46L_47Q_49P_50I_52G_53F_54G_55C_67L_): 2.067
- B03_logFC (Degron-ID 6707, SEQ ID NO 4302, 46L_47Q_49P_50I_52G_53F_54I_55C_67L_): 2.216
- B03_logFC (Degron-ID 6710, SEQ ID NO 4336, 46L_47Q_49P_50I_52G_53F_54M_55C_67L_): 2.149
- B03_logFC (Degron-ID 6717, SEQ ID NO 4329, 46L_47Q_49P_50I_52G_53F_54V_55C_67L_): 2.156
- B03_logFC (Degron-ID 6720, SEQ ID NO 4341, 46L_47R_49P_50I_52G_53F_54A_55C_67L_): 2.14
- B03_logFC (Degron-ID 6725, SEQ ID NO 4343, 46L_47R_49P_50I_52G_53F_54G_55C_67L_): 2.137
- B03_logFC (Degron-ID 6740, SEQ ID NO 3861, 46L_47S_49P_50I_52G_53F_54A_55C_67L): 2.907
